A short description of this experiment: qHTS Assay for Lipid Storage Modulators in Drosophila S3 Cells.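 For cell number change: cells counted by Cell Tracker Red CMTPX staining in the red channel.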 The note with it: BODIPY lipid droplet fluorescence, 18-24 h; for cell number change: measured here: cell count max response, cells fed with added oleic acid. The procedure, abridged:
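Drosophila S3 cells loaded with oleic acid (400 uM, as added) and compounds at several concentrations; lipid droplets imaged by 488-nm laser-scanning cytometry, 500–530 nm intensity and object ratio to cell channel. Percent activity normalized to 20 uM Triacsin C.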
(Quantitative high-throughput screening tests each substance at several concentrations.)

The mark [1] stands for this setting: measured here: cell number channel AC50, cells fed with added oleic acid.
Setting [2] is: measured here: lipid fluorescence (Fed channel) AC50, cells fed with added oleic acid.

Cell number change and AC50 data for 56 compounds are collected here from PubChem BioAssay AID2685 (National Center for Advancing Translational Sciences (NCATS), 2010).

By AC50 is commonly meant the concentration at which the activity in the assay is half-maximal. A high value points to weaker potency.

The structures appear in SMILES notation. This is one part of the list. Further columns of the screen follow, without active or inactive calls. Compounds called inactive in the main read-out are mostly missing here. Words in brackets tell the shape of the fitted curve; partial curves, single points and poor fits give uncertain potencies.

`CCCCNC(=O)/C=C/c1ccc(OC)c(Br)c1`: the cell number change stood at 98.2%. Further, the AC50 under setting [1] is 13 µM [rising, partial curve].
With `Cc1ccc(N2CC(C(=O)OCc3nc(N)nc(Nc4ccccc4C)n3)CC2=O)cc1` (centres undefined), the cell number change was -5.82%. Moreover, under setting [2], the AC50 is 2.06 µM [falling, partial curve, poor fit].
Regarding `Cc1ccc2c(c1)C1CN(C)CCC1N2S(=O)(=O)c1ccccc1F` (centres undefined), the cell number change is 5.91%. Also, the AC50 under setting [2] was 2.06 µM [rising, single point].
In the case of `CC1(C)CC(=O)C(C=Nc2cc(C(=O)c3ccccc3)ccc2N)=C(O)C1`, the cell number change amounted to 75.4%. For the same compound, the AC50 under setting [1] was 8.2 µM [rising, partial curve]. Moreover, the concentration at half-maximal activity (AC50) under setting [2] is 25.9 µM [falling, single point].
`COc1ccccc1CN1CCC(CNS(=O)(=O)c2cc(-c3cc(C)no3)ccc2OC)CC1`: the cell number change came to 60.6%. Further, the AC50 under setting [1] was 7.31 µM [rising, partial curve]. Further, under setting [2], the AC50 was 16.4 µM [rising, partial curve].
Take `CCCc1cc(=O)[nH]c(SCC(=O)Nc2c(C)cccc2C)n1`: the cell number change is -0.231%. Besides, the AC50 under setting [2] is 23.1 µM [rising, single point].
In the case of `Cc1ccc(S(=O)(=O)N(C)c2ccc(C(=O)N(CC(C)C)C3CCS(=O)(=O)C3)cc2)cc1` (centres undefined), the cell number change amounted to 70.7%. The half-maximal activity concentration (AC50) under setting [1] is 16.4 µM [rising, partial curve, poor fit].
`CCCCc1ccc(NC(=O)COc2ccc(C(=O)Nc3ccccc3C)cc2)cc1`: the cell number change was -40.6%. Also, the concentration at half-maximal activity (AC50) under setting [1] is 13 µM [falling, partial curve, poor fit].
`O=C1C=C(NCc2ccc(Cl)c(Cl)c2)C2(CCCCC2)O1`: the cell number change was found to be 9.68%. In addition, the AC50 under setting [2] was 9.2 µM [rising, partial curve, poor fit].
With `COc1ccccc1Cc1nc(-c2ccc(Br)o2)no1`, the cell number change was -9.33%.
Same read-out and setting: as for `CCOC(=O)c1ccc(NC(=S)NCc2ccc(S(N)(=O)=O)cc2)cc1`, the figure is -9.45%.
Turning to `CCCCc1ccc(-n2c(Cc3cccs3)n[nH]c2=S)cc1`, the cell number change was determined as 0.691%. Moreover, under setting [2], the AC50 is 1.16 µM [rising, single point].
For the compound `COc1ccc(N2CC(NS(=O)(=O)c3ccc4ccccc4c3)CC2=O)cc1` (centres undefined), the concentration at half-maximal activity (AC50) under setting [2] was 16.4 µM [rising, partial curve].
Regarding `COc1ccc(CN(C)S(=O)(=O)c2nnc(NC(=O)c3cccc(OC)c3)s2)cc1`, the cell number change is -13%. The AC50 under setting [2] was 0.082 µM [falling, full curve, poor fit].
For the compound `COc1ccc(OCCCCN(C)Cc2ccccc2)cc1`, the cell number change was 20.5%. In addition, the AC50 under setting [2] is 29.1 µM [rising, single point].
Consider `COc1ccc(CNC(=O)CN2C(=O)CSc3ccc(S(=O)(=O)N4CCOCC4)cc32)cc1`, for which the cell number change is 5.2%. Further, under setting [2], the AC50 was 11.6 µM [rising, single point].
In the case of `CC1(C)Cc2c(C#N)c(N3CCN(C(=O)c4ccccc4)CC3)nc(Cc3ccccc3)c2CO1`, under setting [1], the AC50 is 4.11 µM [rising, partial curve, poor fit].
Take `O=C(COc1ccc2c3c(c(=O)oc2c1)CCC3)NC1CCN(Cc2ccccc2)CC1`: the cell number change is -0.567%. Moreover, the half-maximal activity concentration (AC50) under setting [2] was 29.1 µM [rising, single point].
In the case of `COCCN(CCOC)c1cc(C)c(C#N)c2nc3ccccc3n12`, the cell number change was 2.83%. For the same compound, the AC50 under setting [2] was 6.51 µM [falling, single point].
Turning to `CC(=O)Nc1cc2nn(-c3ccccc3)nc2cc1Cl`, the cell number change came out at 6.69%. Under setting [2], the concentration at half-maximal activity (AC50) is 29.1 µM [falling, single point].
For `COc1ccc(C)cc1C(=O)CCC(=O)Nc1ccccc1N1CCOCC1`, the cell number change turned out to be 90.4%. Besides, under setting [1], the AC50 is 25.9 µM [rising, partial curve]. Also, the AC50 under setting [2] was 18.4 µM [rising, partial curve].
In the case of `COc1ccc(CN2CCN(Cc3ccc(C(F)(F)F)cc3)CC2)c(OC)c1`, the cell number change was -28.3%. Besides, the AC50 under setting [2] is 29.1 µM [falling, single point].
On to `CCC(Sc1nc(C)cc(=O)[nH]1)C(=O)Nc1nc(-c2ccccc2)cs1` (centres undefined), for which the cell number change is 21.2%. For the same compound, under setting [2], the AC50 is 0.82 µM [rising, full curve, poor fit].
As to `COCC(C)NC(=O)c1ccc(N(C)C)cc1` (centres undefined), the cell number change was 32.3%. Moreover, the half-maximal activity concentration (AC50) under setting [1] was 0.291 µM [rising, full curve, poor fit]. Further, under setting [2], the AC50 is 0.651 µM [falling, single point].
Turning to `COc1ccc(/C=C2\Oc3cc(OCC(N)=O)ccc3C2=O)cc1OC`, the cell number change was 5.41%. In addition, under setting [2], the AC50 is 29.1 µM [falling, single point].
With `N#Cc1c(N2CCCC2)nc(N)c2c(N)nc(N3CCCC3)cc12`, the AC50 under setting [1] is 1.64 µM [rising, partial curve].
As for `CCn1ncc(Br)c1C(=O)Nc1ccc(OC(F)(F)F)cc1`, the cell number change is -6.38%.
On the same count and under the same terms, as for `CCOC(=O)c1cc(NC(=O)c2cc(C)on2)cc(C(=O)OCC)c1`, the figure is 7.1%.
On to `Fc1ccc(NC(=S)Nc2cccnc2)cc1`, for which the cell number change is -83.4%. For the same compound, the AC50 under setting [1] was 18.4 µM [falling, single point]. Also, the AC50 under setting [2] is 29.1 µM [falling, partial curve].
Consider `COC(=O)c1ccc(C(=O)OC)c(NC(=O)CN2CCN(c3ccc(OC)cc3)CC2)c1`, for which the cell number change was -8.57%. Further, the AC50 under setting [1] was 0.13 µM [rising, full curve]. Also, under setting [2], the AC50 was 4.11 µM [rising, partial curve, poor fit].
For `O=C(CCN1C(=O)[C@@H]2Cc3ccccc3CN2C1=O)NCCc1ccccc1`, the cell number change was 2.27%. Also, the concentration at half-maximal activity (AC50) under setting [1] is 3.66 µM [rising, partial curve, poor fit].
In the case of `Cc1[nH]c2ccccc2c1/C=N/NC(=O)c1cccc(S(=O)(=O)Nc2cccc(C(F)(F)F)c2)c1`, the cell number change is -91.1%. Also, the concentration at half-maximal activity (AC50) under setting [1] was 29.1 µM [falling, single point]. Further, the AC50 under setting [2] was 20.6 µM [falling, partial curve].
`COc1ccc(Cl)cc1N(CC(=O)NCCSc1ccccn1)S(=O)(=O)c1ccccc1`: the concentration at half-maximal activity (AC50) under setting [2] was 29.1 µM [falling, single point].
Take `O=C(Nc1nnc(COc2ccc(Cl)cc2)s1)c1ccc([N+](=O)[O-])cc1`: the cell number change was 15%. Besides, under setting [2], the AC50 is 10.3 µM [rising, partial curve, poor fit].
In the case of `Cc1cc(-c2c(C)[nH]n(-c3ccccc3)c2=O)n[nH]1`, the cell number change is -44.3%. Under setting [1], the half-maximal activity concentration (AC50) was 9.2 µM [falling, partial curve]. For the same compound, under setting [2], the AC50 is 29.1 µM [falling, single point].
Take `Cn1c(C(=O)NCCN2CCCCCC2)cc2c(=O)n(C)c3ccccc3c21`: the half-maximal activity concentration (AC50) under setting [1] was 2.59 µM [falling, single point] and the concentration at half-maximal activity (AC50) under setting [2] was 3.66 µM [falling, partial curve].
Consider `CCc1nnc(NC(=O)C2CCN(c3nc(C)cc(C)n3)CC2)s1`, for which the cell number change was -4.05%. For the same compound, the concentration at half-maximal activity (AC50) under setting [2] was 3.26 µM [falling, single point].
On to `O=C(Nc1c(F)cc(F)cc1Br)c1cc(-c2ccccc2)on1`, for which the cell number change is -8.03%.
On to `CCOc1ccc(/C=N/NC(=O)c2c(C)n(C)c3ccc(OC)cc23)cc1`, for which the cell number change was determined as 37.2%. Besides, under setting [1], the AC50 was 9.2 µM [rising, partial curve]. Besides, the AC50 under setting [2] is 8.2 µM [rising, partial curve].
For `COc1ccccc1C1C(C(N)=O)=C(C)Nc2nc(-c3ccc(Cl)cc3)nn21` (centres undefined), the cell number change turned out to be 13.6%. Further, the AC50 under setting [2] was 6.51 µM [falling, single point].
In the case of `O=C(O)c1cccc(N(CCO)CCO)c1`, the cell number change is -1.07%.
In the case of `O=C(COc1ccccc1Cl)Nc1ccccc1C(=O)N1CCCCC1`, the cell number change worked out at 1.61%. The concentration at half-maximal activity (AC50) under setting [1] was 0.146 µM [rising, full curve, poor fit]. Under setting [2], the half-maximal activity concentration (AC50) is 25.9 µM [falling, single point].
As to `Cc1ccc(NC(=O)CN2CCc3cc4c(cc3C2C)OCCCO4)cc1` (centres undefined), the cell number change came to 10.4%.
Regarding `Clc1ccc(-c2cnc3ccccc3n2)cc1`, the cell number change is 14.6%. Moreover, under setting [1], the AC50 is 6.51 µM [rising, single point]. For the same compound, under setting [2], the AC50 is 29.1 µM [falling, single point].
On to `CC(=O)C1C(=O)c2c(cccc2[N+](=O)[O-])C1=Nc1cccc(Cl)c1` (centres undefined), for which the cell number change is 7.15%. For the same compound, the concentration at half-maximal activity (AC50) under setting [2] was 32.6 µM [rising, single point].
On to `CN(C)S(=O)(=O)c1ccc(C(=O)NCCC(=O)N2CCCC2)cc1`, for which the cell number change amounted to 10.5%.
`O=C(C1=C[C@@H](c2ccc(C(F)(F)F)cc2)C[C@@H](OCc2ccc(CO)cc2)O1)N1CCN(Cc2ccc3c(c2)OCO3)CC1`: the cell number change was -10.9%. Also, under setting [2], the AC50 is 1.64 µM [falling, partial curve].
`O=C(NNC(=O)NC1CCCCC1)NC1CCCCC1`: the cell number change is -35.3%. In addition, the half-maximal activity concentration (AC50) under setting [1] was 4.11 µM [falling, single point]. Further, the AC50 under setting [2] is 2.06 µM [falling, partial curve].
Regarding `CC[C@]1(c2ccccc2C)ON(c2ccccc2C(F)(F)F)C1=O`, the cell number change was -2.72%. Besides, the AC50 under setting [1] is 0.092 µM [falling, partial curve]. In addition, the half-maximal activity concentration (AC50) under setting [2] is 1.16 µM [rising, single point].
`COc1ccc(C2(C(=O)NCCCN(C)C)CCOCC2)cc1`: the cell number change was -34.9%. Further, under setting [1], the concentration at half-maximal activity (AC50) was 4.11 µM [falling, full curve, poor fit]. Further, the half-maximal activity concentration (AC50) under setting [2] was 10.3 µM [falling, partial curve, poor fit].
Regarding `O=C(Nc1ccc(Oc2c(F)c(F)c(F)c(F)c2F)cc1)OC1CCN2Cc3ccccc3N=C12` (centres undefined), the cell number change is -33.6%. The AC50 under setting [1] was 10.3 µM [falling, partial curve]. Besides, the AC50 under setting [2] was 7.31 µM [falling, partial curve].
For the compound `COc1cc(C#N)c(NC(=O)CN2CCN(CCO)CC2)cc1OC`, the cell number change was -92.2%.
For the compound `Cc1nn(CCc2nn[nH]n2)c2nc(-c3ccc(Br)cc3)cc(C(F)(F)F)c12`, the concentration at half-maximal activity (AC50) is 6.51 µM [rising, single point] under setting [1] and 1.03 µM [rising, full curve, poor fit] under setting [2].
For `CCOC(=O)C1CCCN(Cc2cccs2)C1` (centres undefined), the cell number change is -74.9%. The half-maximal activity concentration (AC50) under setting [1] is 29.1 µM [falling, single point]. Under setting [2], the AC50 was 2.31 µM [falling, full curve].
`Cc1ccc(C(=O)N2CCC3(CC2)Oc2ccc(F)cc2C(=O)C32CC(c3ccc(Cl)cc3)=NO2)s1` (centres undefined): the cell number change turned out to be 14.2%. In addition, the AC50 under setting [2] is 3.26 µM [rising, single point].
For `Fc1ccc(NC(=S)N2CCc3ccccc32)cc1`, under setting [2], the AC50 is 23.1 µM [falling, partial curve, poor fit].
